Measured values from patent publication US20100028370A1.
No constants are given. Whether binding was seen depends on the method and setting. Some entries that bind do so weakly or less than the wild type.

Amino acid sequences for entries named in this document (tags omitted). A change or cut given only in a name is not applied to a line headed by its entry. Residues count along the entry.
UniProt Q07954, residues 806-1183: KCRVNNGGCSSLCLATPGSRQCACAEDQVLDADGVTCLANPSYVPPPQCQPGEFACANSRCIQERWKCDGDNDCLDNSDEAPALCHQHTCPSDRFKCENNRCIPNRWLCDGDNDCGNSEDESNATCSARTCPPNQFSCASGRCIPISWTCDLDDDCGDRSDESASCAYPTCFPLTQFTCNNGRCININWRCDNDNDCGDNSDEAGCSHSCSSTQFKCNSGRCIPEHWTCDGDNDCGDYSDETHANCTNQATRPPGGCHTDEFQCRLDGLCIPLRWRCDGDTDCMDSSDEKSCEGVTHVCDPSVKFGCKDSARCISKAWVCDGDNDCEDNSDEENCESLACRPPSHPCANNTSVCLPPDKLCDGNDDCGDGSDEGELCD
UniProt P30533: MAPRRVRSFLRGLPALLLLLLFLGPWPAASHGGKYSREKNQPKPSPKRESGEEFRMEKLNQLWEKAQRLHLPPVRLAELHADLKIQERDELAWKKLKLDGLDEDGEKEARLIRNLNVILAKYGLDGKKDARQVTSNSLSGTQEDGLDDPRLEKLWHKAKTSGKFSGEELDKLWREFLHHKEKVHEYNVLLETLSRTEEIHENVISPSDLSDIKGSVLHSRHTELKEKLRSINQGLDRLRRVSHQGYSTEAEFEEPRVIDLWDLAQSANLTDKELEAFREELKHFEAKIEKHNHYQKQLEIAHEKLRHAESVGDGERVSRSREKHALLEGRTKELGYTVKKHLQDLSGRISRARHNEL

Assays:
[1] = target: sLRP2, the entire second ligand-binding domain of human LRP1 (recombinant) (human) (UniProt Q07954); experiment: ligand blot, sLRP2 spotted on membrane, detection with anti-RAP antibody
[2] = target: sLRP2, the entire second ligand-binding domain of human LRP1 (recombinant) (human) (UniProt Q07954); experiment: dot blot overlay on immobilised human LRP binding domain 2, detection with anti-RAP antibody

In the case of “receptor-associated protein (RAP) (from UniProt P30533 35-357) (ligand)”, the binding [1] is reported as “binds” and the binding [2] is reported as “binds”.
